PMC5386689
These are yes or no findings as the source states them, for the method shown. In cells and extracts the contact can be indirect. Some results given as binding are weak or reduced against the parent protein; the word gives no strength.

By UniProt entry, the sequences of proteins in these tests, tags left out. Residues count along the entry.
UniProt P11021, residues 19-654: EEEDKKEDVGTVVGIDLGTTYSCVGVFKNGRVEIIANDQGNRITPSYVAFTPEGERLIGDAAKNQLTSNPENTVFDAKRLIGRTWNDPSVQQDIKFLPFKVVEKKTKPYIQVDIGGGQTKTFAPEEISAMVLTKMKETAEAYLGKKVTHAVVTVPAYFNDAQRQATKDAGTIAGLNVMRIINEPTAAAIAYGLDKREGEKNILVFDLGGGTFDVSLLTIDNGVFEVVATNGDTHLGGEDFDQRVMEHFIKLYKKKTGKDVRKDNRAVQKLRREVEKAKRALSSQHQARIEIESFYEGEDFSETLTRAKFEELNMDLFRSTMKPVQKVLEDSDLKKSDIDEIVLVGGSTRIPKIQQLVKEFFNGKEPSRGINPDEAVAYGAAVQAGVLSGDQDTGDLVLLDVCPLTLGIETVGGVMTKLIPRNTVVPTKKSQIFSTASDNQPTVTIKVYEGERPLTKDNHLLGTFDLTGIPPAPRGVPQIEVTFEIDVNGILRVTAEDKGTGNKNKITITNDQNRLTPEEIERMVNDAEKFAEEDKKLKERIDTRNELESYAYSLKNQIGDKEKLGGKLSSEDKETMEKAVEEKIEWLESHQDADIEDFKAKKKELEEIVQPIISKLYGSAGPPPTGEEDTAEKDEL

Target: recombinant human GRP78 (rhGRP78), bait of the GST pull-down (human) (UniProt P11021)
Test: pull-down; GST pull-down with rhGRP78 as the bait; EGFR from SMMC7721 and PLC cells, detected in the precipitates; only the target purified

Substance: epidermal cell growth factor receptor (EGFR), endogenous in SMMC7721 and PLC cells (from UniProt P00533 25-1210)
- binding: binds
